Results on 29 targets are retold here after the supplement of paper PMC10849652.

Protein sequences, listed by entry. Tags and fused reporters are not part of them. Lines headed by an entry give the natural chain unless they say otherwise; changes in a name come on top.
UniProt P09496: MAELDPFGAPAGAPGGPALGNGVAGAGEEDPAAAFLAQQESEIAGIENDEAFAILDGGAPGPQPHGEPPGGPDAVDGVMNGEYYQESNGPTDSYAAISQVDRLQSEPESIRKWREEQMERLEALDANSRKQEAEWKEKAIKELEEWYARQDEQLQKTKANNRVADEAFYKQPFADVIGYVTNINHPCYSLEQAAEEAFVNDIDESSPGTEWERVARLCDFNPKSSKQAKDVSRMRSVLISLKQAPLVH
UniProt Q8IYA6: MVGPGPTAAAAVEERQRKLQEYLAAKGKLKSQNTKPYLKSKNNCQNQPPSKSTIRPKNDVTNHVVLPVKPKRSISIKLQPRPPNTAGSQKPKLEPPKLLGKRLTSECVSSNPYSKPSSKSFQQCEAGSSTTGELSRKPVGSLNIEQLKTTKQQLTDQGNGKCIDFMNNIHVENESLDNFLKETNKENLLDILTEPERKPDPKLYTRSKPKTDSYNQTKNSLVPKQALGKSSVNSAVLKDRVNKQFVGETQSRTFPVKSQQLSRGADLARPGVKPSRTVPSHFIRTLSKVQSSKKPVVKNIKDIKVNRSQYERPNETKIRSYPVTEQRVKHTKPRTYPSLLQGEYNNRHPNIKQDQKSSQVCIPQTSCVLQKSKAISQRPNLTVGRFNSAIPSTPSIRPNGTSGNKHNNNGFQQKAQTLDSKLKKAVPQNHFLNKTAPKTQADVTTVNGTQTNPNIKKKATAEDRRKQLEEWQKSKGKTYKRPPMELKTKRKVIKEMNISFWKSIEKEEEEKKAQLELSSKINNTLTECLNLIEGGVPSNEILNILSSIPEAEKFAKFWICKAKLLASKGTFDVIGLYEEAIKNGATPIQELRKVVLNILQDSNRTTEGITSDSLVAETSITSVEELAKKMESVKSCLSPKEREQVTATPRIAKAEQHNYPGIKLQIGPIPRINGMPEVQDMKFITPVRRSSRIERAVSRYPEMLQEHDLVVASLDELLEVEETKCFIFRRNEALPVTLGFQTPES
UniProt Q3L8U1: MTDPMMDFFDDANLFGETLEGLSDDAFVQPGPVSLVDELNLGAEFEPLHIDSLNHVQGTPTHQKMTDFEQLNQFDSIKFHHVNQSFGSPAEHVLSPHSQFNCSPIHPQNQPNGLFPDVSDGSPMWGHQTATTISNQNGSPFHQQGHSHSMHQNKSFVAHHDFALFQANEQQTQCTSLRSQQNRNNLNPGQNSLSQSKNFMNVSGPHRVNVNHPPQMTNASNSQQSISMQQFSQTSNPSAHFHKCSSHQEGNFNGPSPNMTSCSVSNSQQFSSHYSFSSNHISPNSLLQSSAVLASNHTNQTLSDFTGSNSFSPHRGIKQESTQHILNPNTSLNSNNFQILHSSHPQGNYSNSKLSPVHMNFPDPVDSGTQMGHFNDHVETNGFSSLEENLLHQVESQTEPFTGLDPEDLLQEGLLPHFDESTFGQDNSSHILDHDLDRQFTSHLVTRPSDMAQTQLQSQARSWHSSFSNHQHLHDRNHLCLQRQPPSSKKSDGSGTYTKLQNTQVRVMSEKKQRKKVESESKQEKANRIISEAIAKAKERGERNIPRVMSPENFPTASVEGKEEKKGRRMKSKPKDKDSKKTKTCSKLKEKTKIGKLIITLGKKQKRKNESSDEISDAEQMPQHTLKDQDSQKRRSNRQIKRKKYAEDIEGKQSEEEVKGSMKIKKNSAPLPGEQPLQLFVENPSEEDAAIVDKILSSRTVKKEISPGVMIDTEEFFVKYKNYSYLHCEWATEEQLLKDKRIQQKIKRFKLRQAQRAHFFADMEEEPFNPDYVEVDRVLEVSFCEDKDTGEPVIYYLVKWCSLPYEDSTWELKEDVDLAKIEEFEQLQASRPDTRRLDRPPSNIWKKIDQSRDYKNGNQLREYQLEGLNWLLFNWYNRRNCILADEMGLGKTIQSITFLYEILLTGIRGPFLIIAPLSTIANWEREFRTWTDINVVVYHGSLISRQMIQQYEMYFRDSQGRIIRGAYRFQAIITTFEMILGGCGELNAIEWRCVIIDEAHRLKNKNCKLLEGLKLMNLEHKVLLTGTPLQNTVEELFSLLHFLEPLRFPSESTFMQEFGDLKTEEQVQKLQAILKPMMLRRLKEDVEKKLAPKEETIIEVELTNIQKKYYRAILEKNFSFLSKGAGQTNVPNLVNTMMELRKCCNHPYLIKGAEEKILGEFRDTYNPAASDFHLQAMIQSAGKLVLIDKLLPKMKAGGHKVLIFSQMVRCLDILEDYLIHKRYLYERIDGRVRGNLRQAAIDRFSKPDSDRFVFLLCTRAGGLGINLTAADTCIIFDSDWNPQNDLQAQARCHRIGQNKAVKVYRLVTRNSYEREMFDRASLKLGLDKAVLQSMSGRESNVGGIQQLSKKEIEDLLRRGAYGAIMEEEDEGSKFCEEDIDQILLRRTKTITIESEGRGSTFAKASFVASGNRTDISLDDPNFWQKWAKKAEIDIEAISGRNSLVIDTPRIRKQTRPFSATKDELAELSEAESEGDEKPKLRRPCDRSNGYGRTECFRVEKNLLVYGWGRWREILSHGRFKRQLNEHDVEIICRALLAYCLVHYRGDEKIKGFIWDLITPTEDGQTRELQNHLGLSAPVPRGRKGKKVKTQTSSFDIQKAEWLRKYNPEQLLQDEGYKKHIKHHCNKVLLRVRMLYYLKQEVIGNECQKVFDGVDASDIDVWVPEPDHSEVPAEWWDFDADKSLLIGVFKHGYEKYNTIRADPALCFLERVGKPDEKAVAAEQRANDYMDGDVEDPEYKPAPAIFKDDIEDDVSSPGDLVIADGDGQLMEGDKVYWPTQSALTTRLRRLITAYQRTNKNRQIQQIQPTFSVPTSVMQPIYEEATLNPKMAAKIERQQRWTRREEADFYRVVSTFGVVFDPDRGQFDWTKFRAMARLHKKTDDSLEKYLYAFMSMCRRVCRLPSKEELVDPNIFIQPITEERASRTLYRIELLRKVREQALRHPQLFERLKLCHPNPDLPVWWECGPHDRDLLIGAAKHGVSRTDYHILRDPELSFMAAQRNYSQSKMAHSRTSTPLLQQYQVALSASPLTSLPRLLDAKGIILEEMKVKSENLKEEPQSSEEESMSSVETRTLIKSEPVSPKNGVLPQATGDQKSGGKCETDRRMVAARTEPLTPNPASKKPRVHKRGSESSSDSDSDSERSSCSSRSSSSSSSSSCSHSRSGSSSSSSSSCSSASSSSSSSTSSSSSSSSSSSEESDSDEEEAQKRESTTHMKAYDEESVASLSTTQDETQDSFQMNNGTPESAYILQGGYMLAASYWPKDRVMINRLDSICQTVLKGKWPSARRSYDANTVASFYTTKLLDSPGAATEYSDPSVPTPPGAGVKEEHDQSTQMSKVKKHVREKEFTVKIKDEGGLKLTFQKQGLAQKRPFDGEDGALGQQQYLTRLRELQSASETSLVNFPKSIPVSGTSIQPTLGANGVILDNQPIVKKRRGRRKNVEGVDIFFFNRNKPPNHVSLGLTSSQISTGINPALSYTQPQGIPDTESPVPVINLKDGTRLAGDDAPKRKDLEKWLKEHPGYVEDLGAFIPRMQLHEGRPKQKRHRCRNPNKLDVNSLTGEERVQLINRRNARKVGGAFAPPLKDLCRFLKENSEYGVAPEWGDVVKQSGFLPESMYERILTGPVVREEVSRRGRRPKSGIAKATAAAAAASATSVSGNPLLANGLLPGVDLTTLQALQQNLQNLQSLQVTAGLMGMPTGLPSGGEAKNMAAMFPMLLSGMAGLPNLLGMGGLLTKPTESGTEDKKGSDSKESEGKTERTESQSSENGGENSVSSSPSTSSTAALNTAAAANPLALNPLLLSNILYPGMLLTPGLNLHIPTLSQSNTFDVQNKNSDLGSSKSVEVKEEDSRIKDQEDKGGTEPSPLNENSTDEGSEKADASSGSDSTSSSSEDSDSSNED
UniProt Q9NWW5: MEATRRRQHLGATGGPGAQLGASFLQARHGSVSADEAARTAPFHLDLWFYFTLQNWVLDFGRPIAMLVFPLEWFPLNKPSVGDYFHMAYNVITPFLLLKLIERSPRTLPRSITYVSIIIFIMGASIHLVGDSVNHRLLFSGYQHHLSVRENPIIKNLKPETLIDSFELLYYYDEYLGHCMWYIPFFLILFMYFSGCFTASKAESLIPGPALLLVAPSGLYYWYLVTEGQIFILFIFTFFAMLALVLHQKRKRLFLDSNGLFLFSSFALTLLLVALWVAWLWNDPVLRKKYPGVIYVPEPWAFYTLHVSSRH
UniProt Q96NY7: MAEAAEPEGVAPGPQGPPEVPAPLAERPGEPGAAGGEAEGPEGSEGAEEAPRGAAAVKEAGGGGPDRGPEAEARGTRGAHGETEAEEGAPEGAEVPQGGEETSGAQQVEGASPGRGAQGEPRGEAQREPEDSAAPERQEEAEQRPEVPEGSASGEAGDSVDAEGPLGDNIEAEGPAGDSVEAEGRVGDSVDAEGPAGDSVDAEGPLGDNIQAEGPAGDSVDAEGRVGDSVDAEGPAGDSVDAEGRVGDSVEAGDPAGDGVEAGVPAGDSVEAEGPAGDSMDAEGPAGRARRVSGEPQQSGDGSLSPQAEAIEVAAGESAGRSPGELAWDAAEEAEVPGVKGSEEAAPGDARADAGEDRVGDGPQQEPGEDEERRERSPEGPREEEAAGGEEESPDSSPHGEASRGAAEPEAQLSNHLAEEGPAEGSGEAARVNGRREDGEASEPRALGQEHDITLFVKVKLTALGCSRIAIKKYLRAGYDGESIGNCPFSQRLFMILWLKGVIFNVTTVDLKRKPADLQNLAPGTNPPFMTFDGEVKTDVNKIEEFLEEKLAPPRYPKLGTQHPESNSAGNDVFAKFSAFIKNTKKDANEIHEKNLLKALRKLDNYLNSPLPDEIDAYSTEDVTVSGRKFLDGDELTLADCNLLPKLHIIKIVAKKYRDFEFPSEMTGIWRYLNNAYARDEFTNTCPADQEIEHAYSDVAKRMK
UniProt Q2KHT3: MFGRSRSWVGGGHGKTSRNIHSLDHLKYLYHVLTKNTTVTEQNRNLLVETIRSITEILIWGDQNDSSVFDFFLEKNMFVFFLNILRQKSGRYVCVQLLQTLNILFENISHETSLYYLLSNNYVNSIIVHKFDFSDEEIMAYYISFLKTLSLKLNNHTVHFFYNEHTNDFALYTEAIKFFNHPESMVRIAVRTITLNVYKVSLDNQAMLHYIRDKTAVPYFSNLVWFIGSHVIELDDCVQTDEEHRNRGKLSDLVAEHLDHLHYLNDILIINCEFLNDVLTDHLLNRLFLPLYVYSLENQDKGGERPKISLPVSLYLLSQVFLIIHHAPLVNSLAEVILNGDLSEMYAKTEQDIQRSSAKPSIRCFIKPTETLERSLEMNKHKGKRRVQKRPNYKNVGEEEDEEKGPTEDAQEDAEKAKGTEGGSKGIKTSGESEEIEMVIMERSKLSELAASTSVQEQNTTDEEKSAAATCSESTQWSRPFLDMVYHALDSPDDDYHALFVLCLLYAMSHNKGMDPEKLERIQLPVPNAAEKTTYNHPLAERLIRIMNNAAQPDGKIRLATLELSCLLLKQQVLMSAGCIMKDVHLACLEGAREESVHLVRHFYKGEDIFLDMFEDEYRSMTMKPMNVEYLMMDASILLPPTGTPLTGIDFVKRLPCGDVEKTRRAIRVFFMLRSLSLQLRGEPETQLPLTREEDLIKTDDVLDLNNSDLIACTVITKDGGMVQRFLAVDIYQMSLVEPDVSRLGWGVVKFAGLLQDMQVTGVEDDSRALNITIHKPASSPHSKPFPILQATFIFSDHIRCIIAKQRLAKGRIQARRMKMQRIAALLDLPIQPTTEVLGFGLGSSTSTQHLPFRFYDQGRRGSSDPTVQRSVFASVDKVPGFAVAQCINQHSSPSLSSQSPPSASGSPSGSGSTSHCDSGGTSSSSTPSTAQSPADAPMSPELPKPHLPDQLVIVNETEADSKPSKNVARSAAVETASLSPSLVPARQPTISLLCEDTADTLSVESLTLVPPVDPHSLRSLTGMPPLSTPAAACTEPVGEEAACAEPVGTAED
UniProt Q9NX76: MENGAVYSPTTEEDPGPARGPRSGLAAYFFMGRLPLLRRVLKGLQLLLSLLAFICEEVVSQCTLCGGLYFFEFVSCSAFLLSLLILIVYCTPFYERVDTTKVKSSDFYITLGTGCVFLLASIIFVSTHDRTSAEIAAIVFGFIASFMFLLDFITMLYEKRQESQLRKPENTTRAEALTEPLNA
UniProt P0CG13, whole entry, looked up: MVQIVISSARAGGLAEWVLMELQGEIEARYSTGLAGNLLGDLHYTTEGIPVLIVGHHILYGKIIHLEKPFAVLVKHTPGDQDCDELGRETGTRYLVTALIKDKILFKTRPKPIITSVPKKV
UniProt P56749: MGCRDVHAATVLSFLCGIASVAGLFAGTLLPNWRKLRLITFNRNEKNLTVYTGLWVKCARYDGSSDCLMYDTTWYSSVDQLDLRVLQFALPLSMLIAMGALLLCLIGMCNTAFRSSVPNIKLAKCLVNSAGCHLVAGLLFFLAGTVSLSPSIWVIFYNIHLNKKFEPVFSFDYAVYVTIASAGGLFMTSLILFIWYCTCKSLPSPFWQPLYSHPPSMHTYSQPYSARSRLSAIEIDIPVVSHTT

The list shows a part of the results.

Compound in the first experiment: CC1=C(C2=C(C=C1)C(=O)C3=CC=CC=C3N2CCCN)C
In words: log2 fold change, soluble protein after heating vs DMSO (PISA); higher = thermal stabilisation; K562 lysate, 10 uM; active = over 0.2 and 3.5 SD of the protein, either way, in both replicates (recomputed). An outline of the steps:
(§1)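 Following dounce homogenisation of K562 pellets in PBS pH 7.4 with 1 mM MgCl2, crude extract at 1 mg/mL protein was incubated for 30 min with 10 μM compound. Aliquots were then heated for 3 min over 48°C-58°C and pooled, NP-40 was added to 0.5% at 4°C, and soluble protein was recovered as the supernatant at 21,000xg for 90 min. Channel-sum-equalised TMTpro 16plex LC-MS/MS quantified this protein. Each value, from duplicates, is a log-two fold change in thermal stability relative to solvent controls.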
As for CHPF2 (UniProt Q9P2E5), the log2 fold change was inactive: -0.09.
On the same count and under the same terms, under CLN8 (UniProt Q9UBY8) stands inactive: -0.067; under CLUAP1 (UniProt Q96AJ1), inactive: -0.028.
Still for that read-out and setting: the result for CISD3 (UniProt P0C7P0) reads inactive: -0.027; that for CLCN2 (UniProt P51788), inactive: 0.012.
Still for that read-out and setting: under CLTA (UniProt P09496) stands inactive: 0.022; under CKAP2L (UniProt Q8IYA6), inactive: 0.
CLK3 (UniProt P49761): the log2 fold change is inactive: -0.012.
Same read-out and setting: under CLIP1 isoform 2 (UniProt P30622) stands inactive: -0.025; under CLTC (UniProt Q00610), inactive: 0.015; under CHD9 (UniProt Q3L8U1), inactive: 0.038.
In the case of CHSY1 (UniProt Q86X52), the log2 fold change was inactive: -0.06.
The same measure, in the same setting: under CLN6 (UniProt Q9NWW5) stands inactive: 0.051; under CLIP2 (UniProt Q9UDT6), inactive: -0.055; under CLIC6 (UniProt Q96NY7), inactive: -0.037.
On to CLINT1 isoform 3 (UniProt Q14677), for which the log2 fold change is inactive: 0.007.
Take CHFR (UniProt Q96EP1): the log2 fold change was inactive: -0.06.
Still for that read-out and setting: under CLN3 (UniProt Q13286) stands inactive: -0.044; under CLCN6 isoform 5 (UniProt P51797), inactive: -0.015; under CLEC16A isoform 2 (UniProt Q2KHT3), inactive: 0.039.
The same measure, in the same setting: under CMTM6 (UniProt Q9NX76) stands inactive: 0.012; under CHPF (UniProt Q8IZ52), inactive: -0.001.
With CHEK2 (UniProt O96017), the log2 fold change is inactive: -0.002.
With CHTF8 (UniProt P0CG13), the log2 fold change is inactive: 0.068.
Same read-out and setting: under CLDN12 (UniProt P56749) stands inactive: -0.03.

Compound in the next experiment: CC1=C(C=C(C=C1)NC(=O)C2=CC(=CC=C2)C(C)(C)C#N)NC3=CC4=C(C=C3)N=CN(C4=O)C
The description is as above. An outline of the steps:
as §1
As to CHPF2 (UniProt Q9P2E5), the log2 fold change is inactive: 0.001.
For CLIP4 (UniProt Q8N3C7), the log2 fold change is inactive: 0.012.
Same read-out and setting: under CLN8 (UniProt Q9UBY8) stands inactive: 0.037; under CLUAP1 (UniProt Q96AJ1), inactive: 0.152; under CISD3 (UniProt P0C7P0), inactive: -0.004.
In the case of CLCN2 (UniProt P51788), the log2 fold change is inactive: 0.063.
Turning to CLUAP1 (UniProt I3L2E1), the log2 fold change was inactive: 0.28.
On the same count and under the same terms, the result for CLTA (UniProt P09496) reads inactive: -0.011; that for CKAP2L (UniProt Q8IYA6), inactive: 0.089; that for CLK3 (UniProt P49761), inactive: -0.018.
In the case of CLIP1 isoform 2 (UniProt P30622), the log2 fold change is inactive: 0.053.
The same measure, in the same setting: under CLTC (UniProt Q00610) stands inactive: 0.043; under CHD9 (UniProt Q3L8U1), inactive: -0.031; under CLN6 (UniProt Q9NWW5), inactive: 0.119.
Consider CLIP2 (UniProt Q9UDT6), for which the log2 fold change was inactive: 0.024.
Still for that read-out and setting: under CMTM4 (UniProt Q8IZR5) stands inactive: -0.006; under CLIC6 (UniProt Q96NY7), inactive: -0.002.
On the same count and under the same terms, the result for CLINT1 isoform 3 (UniProt Q14677) reads inactive: -0.053; that for CHFR (UniProt Q96EP1), inactive: -0.021; that for CLCN6 isoform 5 (UniProt P51797), inactive: -0.041.
On to CLEC16A isoform 2 (UniProt Q2KHT3), for which the log2 fold change was inactive: -0.015.
With CMTM6 (UniProt Q9NX76), the log2 fold change is inactive: -0.043.
With CHPF (UniProt Q8IZ52), the log2 fold change was inactive: -0.051.
For the target CHEK2 (UniProt O96017), the log2 fold change is inactive: -0.041.
Same read-out and setting: the result for CHTF8 (UniProt P0CG13) reads inactive: -0.01; that for CLDN12 (UniProt P56749), inactive: 0.072.

Compound in a further experiment: CC1=C(C=C(C=C1)NC(=O)C2=CC(=CC=C2)N(C)C)NC(=O)C3=CC=C(C=C3)O
The experiment is described as above. An outline of the steps:
as §1
Consider CHPF2 (UniProt Q9P2E5), for which the log2 fold change was inactive: 0.032.
On the same count and under the same terms, under CLIP4 (UniProt Q8N3C7) stands inactive: -0.064; under CLN8 (UniProt Q9UBY8), inactive: 0.022.
With CLUAP1 (UniProt Q96AJ1), the log2 fold change is inactive: -0.004.
Regarding CISD3 (UniProt P0C7P0), the log2 fold change is inactive: -0.02.
On the same count and under the same terms, the result for CLCN2 (UniProt P51788) reads inactive: 0.051; that for CLUAP1 (UniProt I3L2E1), inactive: -0.167.
Turning to CLTA (UniProt P09496), the log2 fold change is inactive: -0.037.
On to CKAP2L (UniProt Q8IYA6), for which the log2 fold change is inactive: -0.173.
As for CLIP1 isoform 2 (UniProt P30622), the log2 fold change is inactive: 0.021.
Same read-out and setting: the result for CLTC (UniProt Q00610) reads inactive: 0.015; that for CHD9 (UniProt Q3L8U1), inactive: -0.023.
For the target CHSY1 (UniProt Q86X52), the log2 fold change was inactive: -0.082.
The same measure, in the same setting: under CLN6 (UniProt Q9NWW5) stands inactive: -0.064; under CLIC6 (UniProt Q96NY7), inactive: 0.027.
Same read-out and setting: under CLINT1 isoform 3 (UniProt Q14677) stands inactive: -0.071; under CLK1 isoform 3 (UniProt P49759), inactive: 0.039; under CHFR (UniProt Q96EP1), inactive: 0.031.
Turning to CLN3 (UniProt Q13286), the log2 fold change is inactive: -0.007.
Same read-out and setting: the result for CLCN6 isoform 5 (UniProt P51797) reads inactive: -0.088; that for CLEC16A isoform 2 (UniProt Q2KHT3), inactive: -0.179; that for CMTM6 (UniProt Q9NX76), inactive: -0.026.
As to CHPF (UniProt Q8IZ52), the log2 fold change was inactive: 0.002.
The same measure, in the same setting: under CHEK2 (UniProt O96017) stands inactive: 0.073; under CHTF8 (UniProt P0CG13), inactive: 0.061; under CLDN12 (UniProt P56749), inactive: 0.057.
